Laboratory results: PubChem BioAssay AID1259308 (NCATS, 2017)

Purpose: 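Candidate targets for better recombinant protein yield in mammalian cells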 (primary screen)
Cells: human HEK293 embryonic kidney cells stably expressing firefly luciferase (HEK-CMV-Luc2-Hygro)
Reagent: single siRNA against human genes, 0.8 pmol siRNA per well
Time to read-out: 72 h
Read-out: 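Luciferase light (ONE-Glo) measured on one replicate plate set and viability (CellTiter-Glo) on the other, scaled to a negative control siRNA, with robust z-scores and luciferase per cell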
Reading the numbers: total luciferase, z-score: higher = more reporter protein produced
Active means: 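An siRNA counts as active if its total luciferase robust z-score exceeds 3; genes with two or more such siRNAs out of three were retested with fresh siRNAs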
Meaning of the calls: active = raised luciferase; inactive = no rise
The deposit covers about 59,000 reagents; this is an unselected part. Of all reagents, about 1,510 (2.6%) got an active call. 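Calls use total luciferase alone and ignore viability, so some active siRNAs may act by altering cell number.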 Reagents against one gene are numbered here. Not all columns of the deposit are shown.

total luciferase, z-score, by target and reagent
OR1L4: #1 -1.04 inactive; #2 0.814 inactive; #3 -1.06 inactive
HUS1B: #1 -0.334 inactive; #2 -1.58 inactive; #3 2.02 inactive
SAA4: #1 0.785 inactive; #2 0.0649 inactive; #3 1.89 inactive
FNDC5: #1 -2.14 inactive; #2 -0.326 inactive; #3 0.317 inactive
MIR1915HG: #1 0.131 inactive; #2 0.231 inactive; #3 -1.86 inactive
BDP1: #1 -1.69 inactive; #2 -2.68 inactive; #3 0.0239 inactive
PSMA6: #1 -0.225 inactive; #2 1.27 inactive; #3 0.518 inactive
FARSB: #1 0.627 inactive; #2 -0.0688 inactive; #3 -0.79 inactive
